Values from PubChem BioAssay AID493246 (Drosophila RNAi Screening Center, 2011).
In all, the deposit lists about 21,000 reagents; this is an unselected part of those with a known target gene and a result. In the full data, 429 (2%) are marked active. 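Values are raw and not normalised between plates; calls rest on per-plate z-scores that were not deposited.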 Unmarked entries are inactive. Reagents against one gene are numbered here. The record does not give: the amount of reagent, the time to read-out.

Test: 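Genes fly cells need to grow and stay alive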 (primary screen)
Cell system: Drosophila Kc and S2R+ cells
Reagents: long dsRNA against Drosophila genes
Measured: 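Raw, unnormalised count of remaining cells in each well; per-plate z-scores of cell number underlie the calls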
Reading the numbers: Kc cell number and S2R+ cell number: higher = more cells remaining
Active means: 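Counted as a hit if cell number falls by a z-score of at least 3 within its plate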

What is on record for CG16824?
Kc cell number, rep 1: 1.62e6; Kc cell number, rep 2: 1.73e6; S2R+ cell number, rep 1: 1.13e6; S2R+ cell number, rep 2: 1.31e6

For CG15403, what does the deposit list?
Kc cell number, rep 1: 1.55e6; Kc cell number, rep 2: 1.52e6; S2R+ cell number, rep 1: 1.09e6; S2R+ cell number, rep 2: 1.28e6

With flap #1, what was measured?
Kc cell number, rep 1: 5.88e5; S2R+ cell number, rep 1: 7.85e5

For flap #2, what does the deposit list?
Kc cell number, rep 1: 1.37e6; Kc cell number, rep 2: 1.39e6; S2R+ cell number, rep 1: 1.05e6; S2R+ cell number, rep 2: 1.02e6

Copied from the listing for reference:
CG16824 — Kc cell number, rep 1 = 1.62e6; Kc cell number, rep 2 = 1.73e6; S2R+ cell number, rep 1 = 1.13e6; S2R+ cell number, rep 2 = 1.31e6
CG15403 — Kc cell number, rep 1 = 1.55e6; Kc cell number, rep 2 = 1.52e6; S2R+ cell number, rep 1 = 1.09e6; S2R+ cell number, rep 2 = 1.28e6

The listing continues.
With gem #1, how do the results read?
Kc cell number, rep 1: 1.36e6; Kc cell number, rep 2: 1.39e6; S2R+ cell number, rep 1: 1.10e6; S2R+ cell number, rep 2: 1.15e6

For gem #2, what does the deposit list?
Kc cell number, rep 1: 1.44e6; Kc cell number, rep 2: 1.52e6; S2R+ cell number, rep 1: 1.21e6; S2R+ cell number, rep 2: 1.31e6

With CG7290, how do the results read?
Kc cell number, rep 1: 1.66e6; Kc cell number, rep 2: 1.84e6; S2R+ cell number, rep 1: 1.21e6; S2R+ cell number, rep 2: 1.41e6

For CG34269, what was measured?
Kc cell number, rep 1: 1.47e6; Kc cell number, rep 2: 1.47e6; S2R+ cell number, rep 1: 9.92e5; S2R+ cell number, rep 2: 1.16e6

What is on record for fs(1)h?
Kc cell number, rep 1: 1.51e6; Kc cell number, rep 2: 1.59e6; S2R+ cell number, rep 1: 1.10e6; S2R+ cell number, rep 2: 1.20e6

How did the screen score CheA46a?
Kc cell number, rep 1: 1.47e6; Kc cell number, rep 2: 1.51e6; S2R+ cell number, rep 1: 1.00e6; S2R+ cell number, rep 2: 1.10e6

How did the screen score CG13369?
Kc cell number, rep 1: 1.42e6; Kc cell number, rep 2: 1.45e6; S2R+ cell number, rep 1: 9.02e5; S2R+ cell number, rep 2: 9.82e5

For Jon25Bi, how do the results read?
Kc cell number, rep 1: 1.57e6; Kc cell number, rep 2: 1.49e6; S2R+ cell number, rep 1: 1.17e6; S2R+ cell number, rep 2: 1.29e6

With HipHop, what was measured?
Kc cell number, rep 1: 1.60e6; Kc cell number, rep 2: 1.64e6; S2R+ cell number, rep 1: 1.25e6; S2R+ cell number, rep 2: 1.31e6

For Rsod, how do the results read?
Kc cell number, rep 1: 1.45e6; Kc cell number, rep 2: 1.46e6; S2R+ cell number, rep 1: 9.92e5; S2R+ cell number, rep 2: 1.07e6
